Measured values published in patent US20230181614A1, “ADMINISTRATION OF CITICOLINE TO IMPROVE COGNITIVE PERFORMANCE, ATTENTIONAL PERFORMANCE, AND MOTOR FUNCTION” (KYOWA HAKKO BIO CO., LTD., priority 2014, published 2023).
For at least one compound, name, drawing or mass did not settle the structure.

Assays:
Format in all cases: in vivo, human
[1] = system: Healthy subjects, ages 13-18; experiment: Trail Making Test
Excerpt: Study participants were screened by telephone prior to study enrollment. Healthy subjects, ages 13-18, with no significant medical conditions and no history of co-morbid psychiatric disorder, current Axis I or II diagnosis, or previous participation in a pharmacotherapeutic trial, were selected. Use of any psychotropic medication or any previous head injury resulting in loss of consciousness for 5 or more minutes were used as exclusion criteria. While no participant met criteria for a neuropsychiatric disorder at enrollment, clinical assessments were still completed throughout the study to evaluate changes in mood state. In addition, self-reports of sleep habits, lifestyle, and exercise routines were also administered at baseline as well as at each study visit to assess changes in health habits during study participation.
Following the completion of Visit 1 assessment, participants were given their 28-day supply of citicoline (250 mg or 500 mg) or placebo, which was randomly assigned. They were instructed to take one capsule a day every day for the next 28 days.
Visit 2 occurred fourteen days after Visit 1. At Visit 2, the remaining study pills were counted and participant dosage calendars were checked to ensure compliance with the protocol. Additional neuropsychological measures and clinical assessments were administered during this visit.
Participants returned for Visit 3 fourteen days later, on the 28th day of their study participation. The pill bottle and the dosage calendar were collected from each participant. Urine and blood were again obtained. Participants also participated in similar clinical and neuropsychological testing and clinical measures that were given during visit 1.
The Trail Making Test is designed to measure visual conceptual and visuomotor tracking, as well as maintenance of cognitive set. On Trial A the participant must draw lines to connect consecutively numbered circles on one work sheet (1-2-3-4 etc.). For Part B they must connect numbered and lettered circles by alternating between the two sequences (i.e., 1-A-2-B etc.). Part B is the more sensitive of the two tests -- particularly to frontal-lobe dysfunction -- as scores on this section are indicative of the participant’s ability to shift sets (numeric to alphabetical order) and process concurrent stimuli. This test was administered on all three visits.

[2] = system: Healthy subjects, ages 13-18; experiment: Stroop Color Word Test
Excerpt: Study participants were screened by telephone prior to study enrollment. Healthy subjects, ages 13-18, with no significant medical conditions and no history of co-morbid psychiatric disorder, current Axis I or II diagnosis, or previous participation in a pharmacotherapeutic trial, were selected. Use of any psychotropic medication or any previous head injury resulting in loss of consciousness for 5 or more minutes were used as exclusion criteria. While no participant met criteria for a neuropsychiatric disorder at enrollment, clinical assessments were still completed throughout the study to evaluate changes in mood state. In addition, self-reports of sleep habits, lifestyle, and exercise routines were also administered at baseline as well as at each study visit to assess changes in health habits during study participation. Following the completion of Visit 1 assessment, participants were given their 28-day supply of citicoline (250 mg or 500 mg) or placebo, which was randomly assigned. They were instructed to take one capsule a day every day for the next 28 days. Visit 2 occurred fourteen days after Visit 1. At Visit 2, the remaining study pills were counted and participant dosage calendars were checked to ensure compliance with the protocol. Additional neuropsychological measures and clinical assessments were administered during this visit. Participants returned for Visit 3 fourteen days later, on the 28th day of their study participation. The pill bottle and the dosage calendar were collected from each participant. Urine and blood were again obtained. Participants also participated in similar clinical and neuropsychological testing and clinical measures that were given during visit 1. The Stroop measures the ability to inhibit incorrect responses and to resist interference. The three conditions, Color Naming, Word Reading, and Interference, are designed to establish competing response tendencies. Outcome variables include time to complete each condition, as well as total errors per condition. The Stroop test was administered at each of the three visits.

[3] = system: Healthy subjects, ages 13-18; experiment: Barratt Impulsiveness Scale (BIS)
Excerpt: Study participants were screened by telephone prior to study enrollment. Healthy subjects, ages 13-18, with no significant medical conditions and no history of co-morbid psychiatric disorder, current Axis I or II diagnosis, or previous participation in a pharmacotherapeutic trial, were selected. Use of any psychotropic medication or any previous head injury resulting in loss of consciousness for 5 or more minutes were used as exclusion criteria. While no participant met criteria for a neuropsychiatric disorder at enrollment, clinical assessments were still completed throughout the study to evaluate changes in mood state. In addition, self-reports of sleep habits, lifestyle, and exercise routines were also administered at baseline as well as at each study visit to assess changes in health habits during study participation. Following the completion of Visit 1 assessment, participants were given their 28-day supply of citicoline (250 mg or 500 mg) or placebo, which was randomly assigned. They were instructed to take one capsule a day every day for the next 28 days. Visit 2 occurred fourteen days after Visit 1. At Visit 2, the remaining study pills were counted and participant dosage calendars were checked to ensure compliance with the protocol. Additional neuropsychological measures and clinical assessments were administered during this visit. Participants returned for Visit 3 fourteen days later, on the 28th day of their study participation. The pill bottle and the dosage calendar were collected from each participant. Urine and blood were again obtained. Participants also participated in similar clinical and neuropsychological testing and clinical measures that were given during visit 1. The BIS is a questionnaire is a scale used to measure impulsiveness. It includes three subscales: attentional, motor, and non-planning impulsiveness. A total score, or a sum of the three factors, was also calculated. The scale was administered at the first and third visits to assess presence or absence of symptoms of impulsiveness.

C[N+](C)(C)CCOP(=O)(O)OP(=O)([O-])OC[C@H]1O[C@@H](n2ccc(N)nc2=O)[C@H](O)[C@@H]1O [citicoline, Cytidine 5′-diphosphocholine]
Trail Making B-A test difference score, visit difference, post-hoc ([1]; 250 mg/day vs 500 mg/day, p=0.06): trend toward a difference
Trail Making B-A test difference score, visit difference, between groups ([1]; 250 mg/day vs 500 mg/day, visit 1 to visit 3, p=0.08): trend toward a difference
Trail Making test A and test B performance time differences, between groups ([1]; 250 mg/day vs 500 mg/day, visit 1 to visit 3, p=0.16, p=0.17): no significant differences
Trail Making performance times test A, test B, B-A difference, between groups ([1]; 250 mg/day vs 500 mg/day, visit 3, p=0.93, 0.15, 0.14): no significant differences
Trail Making test A, test B, B-A performance time differences, between groups ([1]; 250 mg/day vs Placebo, visit 1 to visit 3, p=0.16, 0.35, 0.14): no significant differences
Trail Making performance times test A, test B, B-A difference, between groups ([1]; 250 mg/day vs Placebo, visit 3, p=0.48, 0.98, 0.69): no significant differences
Trail Making performance times test A, test B, B-A test difference, within-group change ([1]; 250 mg/day, visit 1 to visit 3, p=0.03, <0.01, <0.01): significant improvements
Trail Making performance times test A and test B, within-group change ([1]; 500 mg/day, visit 1 to 3, p<0.01, p=0.03): significant improvements
Trail Making B-A test difference, within-group change ([1]; 500 mg/day, visit 1 to visit 3, p=0.25): no significant improvements
Trail Making test A, test B, B-A performance time differences, between groups ([1]; Placebo vs 500 mg/day, visit 1 to visit 3, p=0.90, 0.51, 0.57): no significant differences
Trail Making performance times test A, test B, B-A difference, between groups ([1]; Placebo vs 500 mg/day, visit 3, p=0.48, 0.20, 0.26): no significant differences
Trail Making B-A test difference score, visit difference, three groups ([1]; visit 1 to visit 3, p=0.06): positive trend towards improvement
Trail Making test A and test B difference scores, three groups ([1]; visit 1 to visit 3, p=0.12, p=0.15): No significant differences
Trail Making performance times test A, test B, B-A difference, all three groups ([1]; visit 3, p=0.37, 0.10, 0.11): significant differences
Stroop difference scores (word, color, interference, interference-color), between groups ([2]; 250 mg/day vs 500 mg/day, visit 1 to visit 3, p=0.68, 0.25, 0.53, 0.61): no significant differences
Stroop word, color, interference trial, interference-color difference, between groups ([2]; 250 mg/day vs 500 mg/day, visit 3, p=0.65, 0.69, 0.68, 0.28): no significant differences
Stroop difference scores (word, color, interference, interference-color), between groups ([2]; 250 mg/day vs Placebo, visit 1 to visit 3, p=0.63, 0.17, 0.12, 0.21): no significant differences
Stroop word, color, interference trial, interference-color difference, between groups ([2]; 250 mg/day vs Placebo, visit 3, p=0.62, 0.72, 0.84, 0.81): no significant differences
Stroop word, color, interference trial and interference-word difference, within-group change ([2]; 250 mg/day, visit 1 to visit 3, p=0.04, <0.01, <0.01, <0.01): significant improvement
Stroop difference scores (word, color, interference, interference-color), between groups ([2]; Placebo vs 500 mg/day, visit 1 to visit 3, p=0.96, 0.91, 0.38, 0.45): no significant differences
Stroop word, color, interference trial, interference-color difference, between groups ([2]; Placebo vs 500 mg/day, visit 3, p=0.98, 0.46, 0.56, 0.46): no significant differences
Stroop color, interference trial and interference-word difference, within-group change ([2]; group printed as Placebo, Table 81, visit 1 to visit 3, p<0.01 each): significant improvement
Stroop word trial, within-group change ([2]; group printed as Placebo, Table 81, visit 1 to visit 3, p=0.07): trend toward improvement
Stroop difference scores (word, color, interference, interference-color), all three groups ([2]; p=0.43, 0.17, 0.16, 0.23): no significant differences
Stroop word, color, interference trial, interference-color difference, all three groups ([2]; visit 3, p=0.43, 0.38, 0.41, 0.27): no significant differences
BIS attention and motor, between groups ([3]; 250 mg/day vs 500 mg/day (500 lower), visit 3, p=0.07, p=0.05): trend toward significant differences
BIS difference scores (attention, motor, non-planning, total), between groups ([3]; 250 mg/day vs 500 mg/day, visit 1 to visit 3, p=0.88, 0.44, 0.98, 0.67): No significant differences
BIS non-planning, between groups ([3]; 250 mg/day vs 500 mg/day, visit 3, p=0.12): no significant differences
BIS attention, between groups ([3]; 250 mg/day vs Placebo (Placebo lower), visit 3, p=0.08): trend toward significant differences
BIS difference scores (attention, motor, non-planning, total), between groups ([3]; 250 mg/day vs Placebo, visit 1 to visit 3, p=0.99, 0.95, 0.60, 0.81): No significant differences
BIS motor, between groups ([3]; 250 mg/day vs Placebo, visit 3, p=0.13): no significant differences
BIS attention, motor, non-planning, total score, within-group change ([3]; 250 mg/day, visit 1 to visit 3, p=0.44, 0.36, 0.30, 0.35): no improvement
BIS difference scores (attention, motor, non-planning, total), between groups ([3]; Placebo vs 500 mg/day, visit 1 to visit 3, p=0.89, 0.42, 0.58, 0.85): No significant differences
BIS attention, motor, non-planning, total, between groups ([3]; Placebo vs 500 mg/day, visit 3, p=0.82, 0.47, 0.56, 0.91): no significant difference
BIS non-planning, within-group change ([3]; group printed as Placebo, Table 18, visit 1 to 3, p=0.09): trend toward improvement
BIS attention, motor, total score, within-group change ([3]; group printed as Placebo, Table 18, visit 1 to visit 3, p=0.47, 0.40, 0.17): no improvement
BIS difference scores (attention, motor, non-planning, total), overall ([3]; three groups, p=0.49, 0.32, 0.42, 0.45): no significant differences
BIS attention, motor, non-planning, total, overall analysis ([3]; three groups, visit 3, p=0.05, 0.04, 0.04, 0.01): significant differences
BIS total and non-planning score, Placebo relative to 250 mg/day ([3]; visit 3, p=0.02, p=0.04): significantly lower
BIS total score, 500 mg/day relative to 250 mg/day ([3]; visit 3, p=0.03): significantly lower
BIS motor and total score, post-hoc, 500 mg/day relative to 250 mg/day ([3]; visit 3, p=0.04, p=0.02): significantly lower
BIS non-planning and total score, post-hoc, Placebo relative to 250 mg/day ([3]; visit 3, p=0.04, p=0.03): significantly lower
BIS attention, post-hoc, 500 mg/day relative to 250 mg/day ([3]; visit 3, p=0.06): trend toward lower scores
